These are yes or no findings as the source states them, for the method shown. Binding seen in cells or lysates may run through a third protein. A yes stands for co-enrichment or nearness to the bait. Other partners may have been found.
Molecular target: Glucose-6-phosphate dehydrogenase (G6PD), endogenous in rat VSMCs (rat (endogenous in primary VSMCs)) (UniProt P05370)
Assay: affinity purification with mass spectrometry; IP with G6PD antibody (rabbit IgG as mock control) from lysates of rat VSMCs with or without PDGF-BB; SDS-PAGE, in-gel digestion, LC-MS/MS

Protein sequences, listed by entry. Tags and fused reporters are not part of them.
UniProt P05370: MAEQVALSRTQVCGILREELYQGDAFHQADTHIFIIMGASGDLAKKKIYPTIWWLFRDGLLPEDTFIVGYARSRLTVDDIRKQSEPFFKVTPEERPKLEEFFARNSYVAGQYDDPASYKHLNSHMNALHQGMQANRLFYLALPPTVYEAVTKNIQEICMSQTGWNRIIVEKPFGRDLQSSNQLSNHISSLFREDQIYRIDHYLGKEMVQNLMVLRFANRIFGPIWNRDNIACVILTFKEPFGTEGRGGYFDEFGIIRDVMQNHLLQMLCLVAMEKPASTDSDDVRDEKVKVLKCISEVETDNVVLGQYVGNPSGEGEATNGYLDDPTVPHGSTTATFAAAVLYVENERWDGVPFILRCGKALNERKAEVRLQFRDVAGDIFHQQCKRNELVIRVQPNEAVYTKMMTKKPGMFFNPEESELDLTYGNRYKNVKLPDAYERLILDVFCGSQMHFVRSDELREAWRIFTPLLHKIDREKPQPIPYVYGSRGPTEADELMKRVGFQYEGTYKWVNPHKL
UniProt Q9Z2L0: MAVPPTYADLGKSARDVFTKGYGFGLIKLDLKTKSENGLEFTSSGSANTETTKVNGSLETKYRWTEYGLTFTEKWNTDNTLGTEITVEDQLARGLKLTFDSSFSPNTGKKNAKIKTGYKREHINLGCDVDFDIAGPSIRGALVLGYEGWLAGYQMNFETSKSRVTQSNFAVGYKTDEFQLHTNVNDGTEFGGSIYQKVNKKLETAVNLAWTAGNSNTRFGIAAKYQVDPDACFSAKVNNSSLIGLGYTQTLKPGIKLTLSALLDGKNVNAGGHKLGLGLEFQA

binding: binds
Substance: Voltage-dependent anion-selective channel protein 1 (VDAC1), endogenous in rat VSMCs (from UniProt Q9Z2L0 1-283)

— PMC11003121
